# According to PubChem BioAssay AID1347423 (Functional Genomics Laboratory (NCATS/FGL), 2020):
# The whole screen tested about 52,000 sequences, of which about 210 (0.4%) were called active.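 The calls were made as follows: active = gene whose silencing raises cell survival under the drug, median off-target-corrected z-score across its silencing RNAs 2 or more; inactive = the rest.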 The list shows a part of the results.
# Test: Resistance to Poly (ADP-Ribose) Polymerase inhibitor: Gene Identification via Genome-wide siRNA Screen
# Conditions: mouse BRCA2 R2336H ES cells, olaparib, CellTiter-Glo viability; hits give high values
# Summary of the method: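 Mouse BRCA2 R2336H ES cells were reverse-transfected with siRNA (20 nM final), treated at 48 h with 500 nM olaparib, and read by CellTiter-Glo after 72 h. Scores: MAD-based z per siRNA, median per gene, seed off-target correction.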
row,Sequence,z-score
1,GUGGAAAAUUGAAGGGACGTT against Ndufb3,inactive: 0.0701
2,GGACAAAUUGGUAGGAGGATT against 4732467B22,inactive: 0.197
3,GGCUAAAGUGAGCUCUUCATT against 1700021I09Rik,inactive: -0.282
4,CCGUCAUCCGAGCAAUCAGTT against Kcnq5,inactive: 1.07
5,GGGACUCUUGUUGGAUCCATT against Htr1d,inactive: 0.588
6,GCCACUUCCGGCCUUUUUATT against Zfp422,inactive: 0.155
7,GGUACUGUGCCUAGCCUUATT against Adrb2,inactive: -0.318
8,GCACCUAUACCGCCGUAUCTT against Agpat3,inactive: -0.812
9,GGACUAUGAACCUACCAAATT against Rala,inactive: 0.516
10,CGCAUUCUAUUACUGUUACTT against Stxbp3,inactive: -0.00813
11,GGAAAGGAACAGAAAAGAATT against Odz2,inactive: 1.28
12,GGUGGAACUUCUAUACAAATT against Thbs1,inactive: 0.388
13,CGCGUACAGAAGCAGUUAGTT against AW555464,inactive: 1.71
14,GGGAUCAAUGUCAUCCUUUTT against Nif3l1,inactive: 0.347
15,GCUGACGACGCGGCCUUUCTT against Tifp39,inactive: -1.18
16,GCUAUCCGGAAAGCGAUCATT against Anxa3,inactive: -1.19
17,GGACCAAGAGGACAUUACCTT against Tbl3,inactive: -1.5
18,GCUUAUGAGGCUCAGCAUUTT against Pigh,inactive: -0.496
19,GCUCUGAUUCAUUACUAUUTT against Mansc1,inactive: -0.000872
20,CCACUCACAACAGUACUACTT against Tcfap2d,inactive: -0.861
21,GGAGAGUUUAUCAGACAGUTT against Shmt2,inactive: 2.44
22,GGAUGUUGGUAGACUUCUUTT against Olfr732,inactive: -0.691
23,GCACUAAGCUUUAUUCAUCTT against Mast2,inactive: -0.0778
24,GGCUGAAAAUUCCAGACUGTT against Ka35,inactive: -1.2
25,GACAGUUACCAACUUCUACTT against Gpr54,inactive: 0.478
26,GGGUGAAGAAUCUUUUUGUTT against Olfr676,inactive: 0.172

# Exported bar-delimited: entries from further up
row | Sequence | z-score
19 | GCUCUGAUUCAUUACUAUUTT against Mansc1 | inactive: -0.000872
20 | CCACUCACAACAGUACUACTT against Tcfap2d | inactive: -0.861

# The results go on:

row,Sequence,z-score
1,GCCUAACCUGGUAUCCCAGTT against Zfp92,inactive: 0.793
2,GGGACUUUCCCACUCAAAATT against Olfr1295,inactive: 2.53
3,GCAGGUUCGAAAAUCAAUGTT against Upf3b,inactive: 0.157
4,GGCUGAAGGGCUCUACAAATT against E430021N18Rik,inactive: -1.6
5,GUAUAGUGUAUCUCAUCAUTT against Olfr1107,inactive: 2.32
6,GGUGGAAUAACAGAUAAAATT against Cutc,inactive: -0.391
7,GGUCUUAAUCUCAGGAUGATT against Car5a,inactive: 2.17
8,GGGAAAUCACAAUUCCUUATT against Mcmdc1,inactive: -1.36
9,GGAACUGGUAAAUUUGUAATT against 5730446C15Rik,inactive: -0.237
10,GGUACAGUACAUUGACCUATT against Adck5,inactive: -0.319
11,GGUGUUCUGGAAGAAGAAATT against Thoc1,inactive: -1.92
12,GGUUUUUGACAACUUUCUGTT against Fxyd4,inactive: 0.549
13,GGAUGAUGAAUGCAAUUAATT against Eed,inactive: 0.853
14,CGAACACCGGUUACAAACUTT against 2010001J22Rik,inactive: 0.534
15,CCUAUUUUGGUAAGAUAGATT against Rasl12,inactive: -0.481
16,GGCUGUGCUCAGGAUCAAATT against Olfr683,inactive: 2.34
17,CCUACUUCCGAGGUUUCUUTT against Lmtn,inactive: 0.098
18,GCGAGCGGUUGACUUGUGUTT against Ftsj1,inactive: 0.529
19,GCAUCUUAGGCAUUGCUAGTT against Pcna,inactive: -2.62
20,GGUCUCAUCGCUUGAUACUTT against Pcdhgb6,inactive: -0.666
21,GGGUUCAAGAGAUGAUAUUTT against Usp11,active: 2.47
22,GGACCUACUACGUAAACCATT against Nedd4,inactive: -0.288
23,GCAGGAAGAAUGUUUUUCUTT against LOC626846,inactive: -0.452
24,GGAACAGUACCUUUUUGUGTT against Dnase1,inactive: -0.412
25,CCCUCGUUGAAUUAAACUUTT against Zfp533,inactive: 0.0132
26,CCUCUGUUGAACCAUCAUUTT against Gpr21,inactive: -1.66
